Our source for the AC50 values is PubChem BioAssay AID445 (National Center for Advancing Translational Sciences (NCATS), 2006).

This is one part of the list. Shown are side measurements of this screen, not its main read-out; they come without a call. The list favours compounds with an active or inconclusive main result. Words in brackets tell the shape of the fitted curve; partial curves, single points and poor fits give uncertain potencies.

The nature of this experiment: IkB Signaling. The settings on record: ABC-DLBCL IkBa-CBG/CBR dual luciferase ratio (green luciferase fused to IkBa over red control in OCI-Ly3 lymphoma cells), 4 h. In short, it runs like this: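 In this assay, an IκBα–CBG68 fusion accumulates when IKK-driven degradation is blocked; native CBR normalizes for cell number. OCI-Ly3 cells were treated 4 h with compound and doxycycline, then green and red light read after Chroma-Glo addition.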

[1] abbreviates: measured here: control luc red channel unless noted.
The mark [2] stands for this setting: measured here: IkB-luc green channel.
The mark [3] stands for this setting: measured here: control luc red channel.

For `Cc1ccc(CSc2ncc(Cl)c(C(=O)Oc3ccccc3F)n2)cc1`, the AC50 – broadly, the midpoint of the concentration-response curve, whichever way the signal moves – under setting [1] was 39.8 µM [falling, single point].
`Cc1ccccc1OCCn1cc(C(=O)c2ccco2)c2ccccc21`: the half-maximal activity concentration (AC50) under setting [1] was 12.6 µM [falling, partial curve].
As for `CC(C)COC(=O)n1c(SCC(=O)N(C)C)nc2ccccc21`, under setting [1], the concentration at half-maximal activity (AC50) was 10 µM [falling, partial curve].
For `Cc1ccc2cccc(S(=O)(=O)N3CCN(c4ccccc4F)CC3)c2n1`, the concentration at half-maximal activity (AC50) is 31.6 µM [falling, partial curve] under setting [2] and 25.1 µM [falling, partial curve] under setting [3].
Turning to `Clc1ccc(-c2noc3ncnc(NC4CCCCC4)c23)cc1`, the AC50 under setting [1] was 3.16 µM [rising, partial curve, poor fit].
Still for that read-out and setting: in the case of `COc1cc(CNC(=O)c2ccc3nc(Cc4ccccc4)oc3c2)cc(OC)c1OC` it was 7.94 µM [falling, single point]; in that of `COc1cccc(C(=O)CC2(O)C(=O)N(Cc3ccccc3)c3ccccc32)c1` (stereo unspecified), 12.6 µM [falling, partial curve]; in that of `Cc1ccccc1C(=O)Nc1sc2c(c1C(=O)N1CCC(C)CC1)CCC(C)C2` (stereo unspecified), 15.8 µM [falling, partial curve].
For `COc1ccccc1-n1cnnc1SCC(=O)c1cc(C)n(Cc2cccs2)c1C`, the concentration at half-maximal activity (AC50) under setting [1] is 31.6 µM [falling, partial curve].
For `CCOc1cc2[nH]c(=O)n(CCCCC(=O)N3CCN(c4ccccc4OC)CC3)c(=O)c2cc1OCC`, under setting [1], the AC50 was 25.1 µM [falling, single point].
Turning to `Cc1cn2c(=O)cc(COC(=O)c3ccc(NC(=O)c4ccccc4C)cc3)nc2s1`, the AC50 under setting [1] was 3.98 µM [falling, partial curve].
Consider `COc1ccc2c(c1)c1c(c(=O)n(-c3ccc(OC)c(OC)c3)c(=O)n1Cc1ccc(F)cc1)n2C`, for which, under setting [1], the AC50 is 39.8 µM [rising, single point].
Regarding `Cc1ccccc1CS(=O)(=O)Cc1ccc(C(=O)NCCc2ccc(Cl)cc2)o1`, the AC50 under setting [1] was 39.8 µM [falling, partial curve].
As for `CCOC(=O)C1CCCN(c2c(C(=O)c3ccccc3)cnc3ccc(F)cc23)C1` (stereo unspecified), the half-maximal activity concentration (AC50) under setting [1] is 39.8 µM [falling, single point].
With `O=C(CCS(=O)(=O)c1nc(-c2ccc3c(c2)OCO3)cc(C(F)(F)F)n1)Nc1ccc(Br)cc1`, the half-maximal activity concentration (AC50) under setting [1] was 5.01 µM [falling, full curve].
Turning to `CCCCN(CC)C(=O)c1c[nH]c2ccc(S(=O)(=O)N(C)c3ccc(Cl)cc3)cc2c1=O`, the AC50 under setting [1] is 15.8 µM [falling, partial curve].
For the compound `COc1cccc(-c2cc(C(=O)N3CCCc4ccccc43)no2)c1`, the AC50 under setting [1] is 25.1 µM [falling, partial curve].
Take `O=C1CC(c2c(F)cccc2Cl)c2c(ccc3ccccc23)N1` (stereo unspecified): the concentration at half-maximal activity (AC50) under setting [1] was 31.6 µM [falling, single point].
As for `COc1ccc(C(=O)CSc2nnc(Cn3cnc4ccccc43)o2)cc1`, the AC50 under setting [1] is 10 µM [falling, partial curve].
With `COc1ccc(C(=O)Nc2ccc3nc4c(c(Nc5ccccc5OC)c3c2)CCCC4)c(OC)c1`, the AC50 under setting [1] is 25.1 µM [falling, single point].
`O=C(CCn1nc(-c2ccccc2)c2ccccc2c1=O)N1CCN(c2ccccc2)CC1`: under setting [1], the half-maximal activity concentration (AC50) was 12.6 µM [falling, partial curve].
Still for that read-out and setting: as for `O=C(Cn1c(NCCO)nc2ccccc21)c1ccc(Cl)cc1`, the figure is 25.1 µM [falling, single point].
In the case of `CCN(c1ccccc1C)S(=O)(=O)c1nnc(NC(=O)c2ccccc2C)s1`, the AC50 under setting [1] was 0.501 µM [rising, full curve].
Take `CCOc1ccc(CN2CCN(Cc3ccc4c(c3)c3ccccc3n4CC)CC2)cc1`: under setting [1], the AC50 was 20 µM [falling, partial curve].
The same measure, in the same setting: in the case of `CCOc1ccc(C(=O)/C=C/c2cn(CC(O)CN3CCc4ccccc43)c3ccccc23)cc1` (stereo unspecified) it was 5.01 µM [falling, partial curve]; in that of `Cc1ccc(-c2c(C(=O)N3CCN(c4ccc(F)cc4)CC3)oc(=O)c3ccccc23)cc1`, 15.8 µM [falling, partial curve, poor fit].
On to `Cc1cc(C)cc(N2C(=O)N(Cc3cc(=O)n4ccccc4n3)c3ccccc3S2(=O)=O)c1`, for which the concentration at half-maximal activity (AC50) under setting [1] was 0.794 µM [falling, partial curve].
Turning to `CC(C)Cn1c(N)c(C(=O)COC(=O)c2ccc3c(c2)OCCO3)c(=O)n(C)c1=O`, under setting [1], the half-maximal activity concentration (AC50) is 20 µM [falling, partial curve].
As to `Cc1cccc2c1-c1sc(C(=O)NCCCN3CCN(c4ccccc4F)CC3)cc1CO2`, the AC50 under setting [1] was 25.1 µM [falling, partial curve].
On to `COc1cccc(NC(=O)c2c(C)nn(-c3cccc(C)c3)c2-n2cccc2)c1`, for which, under setting [1], the AC50 is 15.8 µM [falling, partial curve].
With `CCC1Sc2ccccc2N(CC(=O)NCc2ccc(C)cc2)C1=O` (stereo unspecified), the AC50 under setting [1] was 25.1 µM [falling, partial curve].
As to `Cc1cccn2c(=O)c3cc(C(=O)NCC(C)C)sc3nc12`, the AC50 under setting [1] was 0.126 µM [rising, full curve].
For the compound `Cc1noc2ncnc(N3CCN(c4cccc(C(F)(F)F)c4)CC3)c12`, under setting [1], the AC50 was 31.6 µM [falling, single point].
Take `COc1ccc(C)cc1-n1c(-c2ccc(Cl)cc2)cc2c1CC(C)(C)CC2=O`: under setting [1], the half-maximal activity concentration (AC50) was 20 µM [falling, partial curve].
Consider `O=C(c1ccc(Cn2c(=O)[nH]c3ccccc3c2=O)cc1)N1CCN(c2ccccn2)CC1`, for which, under setting [1], the half-maximal activity concentration (AC50) is 12.6 µM [falling, partial curve].
Same read-out and setting: in the case of `CCc1ccccc1S(=O)(=O)Cc1ccc(C(=O)NCc2ccc3c(c2)OCO3)o1` it was 25.1 µM [falling, single point].
As to `COc1ccccc1-c1nnc2sc(COc3ccc(Cl)cc3)nn12`, the AC50 under setting [1] was 6.31 µM [falling, partial curve].
On to `CC1(C)Oc2ccc3ccc(=O)oc3c2-c2cn[nH]c21`, for which the half-maximal activity concentration (AC50) is 12.6 µM [falling, partial curve] under setting [2] and 20 µM [falling, partial curve] under setting [3].
As to `Cc1ccccc1NC(=O)C(=O)NCC(c1ccc2c(c1)OCO2)N1CCN(c2ccccc2)CC1` (stereo unspecified), the AC50 under setting [1] is 39.8 µM [falling, single point].
